PubChem BioAssay AID602196 | INSERM, 2012
Shown is an unselected part of about 23,000 reagents tested. Of all reagents, 455 (2%) are marked active. 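Active includes both protection and sensitisation; some change values fall well beyond the stated -50 to +50 range.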 Entries without a mark were called inactive. Reagents against one gene are numbered here. Not given: the amount of reagent.

Aim: 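Modifiers of cisplatin sensitivity in A549 cells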
System: human A549 lung cancer cells
Knock-down reagent: siRNA pair against human genes
Duration: 48 h transfection before cisplatin; time from cisplatin to read-out not stated
Treatment: cisplatin at a dose killing half of control-siRNA cells; exact dose and duration not given
Measured: 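Shift in cisplatin death relative to control siRNA, from -50 (all cells die) to +50 (no cells die); siRNAs harmful on their own scored 0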
Reading the numbers: two-siRNA summed score (-2 to +2): higher = both siRNAs protect from cisplatin killing; -2 means both sensitise; mean protection from cisplatin (shift in death) and protection from cisplatin (shift in death), siRNA C and protection from cisplatin (shift in death), siRNA D: higher = protection from cisplatin killing
Rule for the call: 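Each siRNA scores 0 if harmful alone by LDH or WST-1, otherwise +1 if it reduces and -1 if it increases cisplatin killing; a gene is active when both siRNAs agree (sum +2 or -2)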
Calls: active = both siRNAs shift cisplatin killing the same way; inactive = no consistent shift, or siRNA harmful alone

| gene | reagent no. | two-siRNA summed score (-2 to +2) | mean protection from cisplatin (shift in death) (%) | protection from cisplatin (shift in death), siRNA C (%) | protection from cisplatin (shift in death), siRNA D (%) |
| --- | --- | --- | --- | --- | --- |
| CERKL | 1 | 0 | 8.2 | 10 | 6.4 |
| CSTF2T | 1 | 0 | 5.6 | 8.3 | 2.9 |
| NUFIP1 | 1 | 0 | 1.2 | 14.4 | -12 |
| CRTAP | 1 | 0 | 5.9 | 1.1 | 10.8 |
| TBL1X | 1 | 0 | -4.9 | -6.8 | -3 |
| GPATCH4 | 1 | -1 | -2.9 | 11.5 | -17.3 |
| TBX20 | 1 | 0 | 9.2 | 10.2 | 8.2 |
| LEO1 | 1 | 0 | 0.9 | 3.2 | -1.5 |
| TEX15 | 1 | 0 | 3.5 | 21.8 | -14.7 |
| PIGO | 1 | 0 | 18.7 | 2.8 | 34.6 |
| LST1 | 1 | 0 | 14.4 | 15.2 | 13.5 |
| IFNA2 | 1 | -1 | -10.3 | -4.8 | -15.8 |
| WNT10B | 1 | 0 | -18.1 | -35.4 | -0.8 |
| ILF3 | 1 | 0 | -1.7 | -2 | -1.5 |
| PNKD | 1 | 1 | 10.4 | 22.1 | -1.3 |
| EFTUD2 | 1 | 0 | 7.9 | 17.3 | -1.5 |
| LOC441468 | 1 | 0 | 5.3 | 5 | 5.6 |
| PIM3 | 1 | 1 | 10.3 | 15 | 5.6 |
| ZNF304 | 1 | 0 | 5.1 | 21.5 | -11.4 |
| LOC441802 | 1 | 1 | 35 | 36.6 | 33.3 |
| ZNF442 | 1 | 0 | 2.4 | -4.2 | 8.9 |
| MATN2 | 1 | 0 | -0.9 | -9.5 | 7.7 |
| OGDH | 1 | 0 | 2.8 | 4.1 | 1.6 |
| ITIH6 | 1 | 2 (active) | 17.4 | 19.5 | 15.4 |
| NFKBIA | 1 | 0 | -5.2 | -32.7 | 22.2 |
| MOXD1 | 1 | -1 | -16.4 | -25.4 | -7.4 |
| GRP | 1 | 0 | 5 | 6.2 | 3.8 |
| GRP | 2 | 1 | 6.9 | 4.3 | 9.4 |
| MFSD8 | 1 | 0 | 0.6 | -8.9 | 10.1 |
| ZNF287 | 1 | 1 | 5.3 | 20.4 | -9.9 |
| PLBD2 | 1 | -1 | -11.3 | -3.2 | -19.5 |
| MAFG | 1 | -1 | -20.1 | -13.8 | -26.5 |
| PCMTD2 | 1 | 0 | 3.8 | -1.2 | 8.8 |
| LINC00885 | 1 | 1 | 15.5 | 21.7 | 9.3 |
| GBA3 | 1 | 0 | -2.8 | 10.6 | -16.2 |
| SMIM8 | 1 | 0 | -3.8 | 1.9 | -9.5 |
| SIRPA | 1 | 0 | 6.9 | 12.8 | 1 |
| EMC3-AS1 | 1 | 0 | 5.7 | 11.8 | -0.4 |
| LOC388214 | 1 | 0 | 15 | 19.3 | 10.6 |

A stretch from the list above:
| gene | reagent no. | two-siRNA summed score (-2 to +2) | mean protection from cisplatin (shift in death) (%) | protection from cisplatin (shift in death), siRNA C (%) | protection from cisplatin (shift in death), siRNA D (%) |
| --- | --- | --- | --- | --- | --- |
| PIM3 | 1 | 1 | 10.3 | 15 | 5.6 |
| ZNF304 | 1 | 0 | 5.1 | 21.5 | -11.4 |
| LOC441802 | 1 | 1 | 35 | 36.6 | 33.3 |
| ZNF442 | 1 | 0 | 2.4 | -4.2 | 8.9 |
| MATN2 | 1 | 0 | -0.9 | -9.5 | 7.7 |
